Assay results as given in patent US5459049A, “Motilin-like polypeptide and use thereof” (priority 1989, dated 1995).
Part of at least one peptide drawing is inferred or uncertain, most often the ends. Ends that are not written are not given here.

Test system: upper small intestine
Assay: Contraction activity of upper small intestine by Balloon method, ED50 compared with [Leu13]-motilin (Test Example 4)
Format: in vivo
Details: unconscious dog, from ED50, activity of control sample [Leu13]-motilin taken as 100%

## FVPIFTYGELQRLQEKERNKGQ [Control Sample, [Leu^13]-motilin]
  Activity (%): 100%
